This passage reports binding results from paper PMC5912950.

Sequences of proteins named here, by UniProt entry; tags and fusion partners are left off.
UniProt Q13546: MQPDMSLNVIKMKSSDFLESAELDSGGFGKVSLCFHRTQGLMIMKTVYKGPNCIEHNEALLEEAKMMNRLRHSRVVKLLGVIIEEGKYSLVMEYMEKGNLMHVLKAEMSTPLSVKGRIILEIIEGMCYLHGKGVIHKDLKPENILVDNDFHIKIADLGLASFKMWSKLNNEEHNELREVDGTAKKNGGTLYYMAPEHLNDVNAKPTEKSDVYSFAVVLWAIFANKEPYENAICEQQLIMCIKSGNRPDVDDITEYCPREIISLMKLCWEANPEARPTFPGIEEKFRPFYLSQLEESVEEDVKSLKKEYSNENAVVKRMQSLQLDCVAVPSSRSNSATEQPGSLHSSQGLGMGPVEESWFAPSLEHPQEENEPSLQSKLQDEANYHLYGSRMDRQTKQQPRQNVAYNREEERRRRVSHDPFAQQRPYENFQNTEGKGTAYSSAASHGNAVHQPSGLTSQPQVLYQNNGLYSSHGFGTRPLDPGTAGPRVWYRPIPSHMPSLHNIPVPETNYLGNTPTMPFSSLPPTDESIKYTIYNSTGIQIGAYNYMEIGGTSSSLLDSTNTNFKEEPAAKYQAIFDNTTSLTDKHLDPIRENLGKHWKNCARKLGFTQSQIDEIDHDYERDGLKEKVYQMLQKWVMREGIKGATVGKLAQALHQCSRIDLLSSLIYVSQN

Experiment [1] has as its target T1, Mind Bomb-2 (MIB2), endogenous (human (endogenous in HEK293, MDA-MB-231, HT1080, 786-0)) (UniProt Q96AX9).
T1 sequence: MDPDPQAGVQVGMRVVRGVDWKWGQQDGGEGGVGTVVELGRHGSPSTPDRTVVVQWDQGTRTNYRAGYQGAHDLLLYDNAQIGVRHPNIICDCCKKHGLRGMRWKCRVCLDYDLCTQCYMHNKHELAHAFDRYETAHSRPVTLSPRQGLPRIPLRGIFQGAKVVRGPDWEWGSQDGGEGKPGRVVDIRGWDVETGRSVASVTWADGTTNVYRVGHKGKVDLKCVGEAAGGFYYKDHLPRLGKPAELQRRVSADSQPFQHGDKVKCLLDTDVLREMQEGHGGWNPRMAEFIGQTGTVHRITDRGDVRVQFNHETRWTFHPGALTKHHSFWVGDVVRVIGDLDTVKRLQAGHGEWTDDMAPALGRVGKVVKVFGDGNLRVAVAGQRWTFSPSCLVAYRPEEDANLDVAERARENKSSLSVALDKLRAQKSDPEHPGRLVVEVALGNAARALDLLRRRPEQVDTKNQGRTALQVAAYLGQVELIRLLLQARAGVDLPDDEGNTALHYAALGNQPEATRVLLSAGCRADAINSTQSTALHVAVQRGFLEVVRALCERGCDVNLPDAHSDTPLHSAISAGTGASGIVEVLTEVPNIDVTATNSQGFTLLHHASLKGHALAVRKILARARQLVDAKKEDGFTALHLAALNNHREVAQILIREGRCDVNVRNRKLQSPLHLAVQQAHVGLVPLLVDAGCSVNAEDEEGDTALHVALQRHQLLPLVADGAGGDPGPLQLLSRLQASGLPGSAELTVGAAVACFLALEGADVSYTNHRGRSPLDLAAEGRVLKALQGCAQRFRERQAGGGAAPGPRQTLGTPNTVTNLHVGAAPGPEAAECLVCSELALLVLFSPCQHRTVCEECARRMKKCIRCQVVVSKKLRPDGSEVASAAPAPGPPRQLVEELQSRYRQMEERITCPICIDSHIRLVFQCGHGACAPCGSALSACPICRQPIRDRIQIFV
Kind of experiment: co-IP; immuno-precipitation of endogenous MIB2 from MDA-MB-231 or 786-0 cells left untreated (no TNF); western blot. In general terms: A western blot detects proteins with antibodies after separation by electrophoresis.

In experiment [2] the target is T2, in vitro translated FLAG-MIB2 (UniProt Q96AX9).
T2 sequence: T1 sequence
Kind of experiment: pull-down; in vitro translated FLAG-MIB2 incubated with lysates of MDA-MB-231 cells left untreated or treated with TNF/SM/zVAD-fmk for 4 hr.

The target of experiment [3] is T1, Mind Bomb-2 (MIB2), endogenous (human (endogenous in HEK293, MDA-MB-231, HT1080, 786-0)). As to the kind of experiment: co-IP; immuno-precipitation of endogenous MIB2 with a MIB2 antibody (protein A/G agarose) from MDA-MB-231 or 786-0 cells treated with FLAG-hTNF (0.8 μg/mL) for the indicated times; western blot.
A further experiment deals with T3, recombinant MIB2 (UniProt Q96AX9).
T3 sequence: T1 sequence
As to the kind of experiment: in vitro binding assay; recombinant MIB2 with in vitro translated RIPK1; only the target purified.

The next experiment deals with T4, HA-MIB2 (UniProt Q96AX9).
T4 sequence: T1 sequence
As to the kind of experiment: co-IP; HA-tagged MIB constructs co-expressed with untagged RIPK1 in 293T cells; HA immuno-precipitation (anti-HA beads, DISC lysis buffer, overnight at 4°C), western blot for RIPK1.

These are yes or no findings as the source states them, for the method shown. For some assays here: In cells and extracts the contact can be indirect. Some entries that bind do so weakly or less than the wild type. For some assays here: Where a sequence is shown, tags or fusion partners need not be part of it.

For “RIPK1, endogenous (from UniProt Q13546 1-671)”, the binding entry in experiment [1] is on record as “no binding (condition: cells not stimulated with TNF)”; in experiment [2], “binds”; in experiment [3], “binds”.
As for “in vitro translated RIPK1 (from UniProt Q13546 1-671)”, the binding entry in the experiment with recombinant MIB2 is on record as “binds”.
“untagged RIPK1 (from UniProt Q13546 1-671)”: the binding result in the experiment with HA-MIB2 was “binds”.
